Source: US20250243427A1, “PRECURSORS OF PHENOLIC FRAGRANT COMPOUNDS” (GIVAUDAN SA, priority 2021, published 2025)

Test: Headspace analysis of released volatiles (SPME GC-MS)
Assay type: physicochemical
Conditions: precursor on paper strip in closed headspace vial, 24 h daylight imitation lamp, 27-28° C.; for Released Volatiles: (Z)-hex-3-en-1-ol, relative peak area %: not related to molar release rates

| SMILES | Released Volatiles: ethyl vanillin, relative peak area % | Released Volatiles: (Z)-hex-3-en-1-ol, relative peak area % | further results |
| --- | --- | --- | --- |
| CC/C=C\CCOc1ccc(C=O)cc1OCC [Example 1, (Z)-3-ethoxy-4-(hex-3-en-1-yloxy)benzaldehyde] | (0.3%) | (Z)-hex-3-en-1-ol (5.6%), ethyl vanillin |  |
| C=CCc1ccc(OCC/C=C\CC)c(OC)c1 [Example 10, (Z)-4-allyl-1-(hex-3-en-1-yloxy)-2-methoxybenzene] |  | 1.9% | Released Volatiles: eugenol, relative peak area %: 1.0% |
| CC=CCCOc1ccc(C=O)cc1OCC [Example 33, 3-ethoxy-4-(pent-3-en-1-yloxy)benzaldehyde] | (0.7%) |  | Released Volatiles: (E,Z)-pent-3-en-1-ol, relative peak area %: (E,Z)-pent-3-en-1-ol (1.2%), ethyl vanillin |
| CCOc1cc(C=O)ccc1OCCC=C(C)C [Example 34, 3-ethoxy-4-((4-methylpent-3-en-1-yl)oxy)benzaldehyde] | 0.5% |  | Released Volatiles: 3-methylbut-2-enal, relative peak area %: 3-methylbut-2-enal (0.1%), 4-methylpent-3-; Released Volatiles: 4-methylpent-3-en-1-ol, relative peak area %: en-1-ol (2.7%), 5,5-dimethylfuran-2(5H)-one; Released Volatiles: 5,5-dimethylfuran-2(5H)-one, relative peak area %: 0.3% |
| CC/C=C\CCOc1ccc(COC(C)C)cc1OCC [Example 50, (Z)-2-ethoxy-1-(hex-3-en-1-yloxy)-4-(isopropoxymethyl)benzene] |  | (Z)-hex-3-en-1-ol (0.8%), 2-ethoxy- | Released Volatiles: 2-ethoxy-4(isopropoxymethyl)phenol (Propyl Diantilis), relative peak area %: Diantilis », 17.1%) |
